Experimental data from PubChem BioAssay AID488837 (National Center for Advancing Translational Sciences (NCATS), 2010).
Out of some 330,000 compounds screened, about 20 (0.006%) were called active. Inconclusive means that the source gave no clear call. Such entries were picked first, then a sample of the others. The call rests on the fitted dose curve; in most records, active means well fitted inhibition curve with a large enough effect; inconclusive means small, poorly fitted or top-dose-only effect, or effect the other way; inactive means flat fitted curve, though single readings scatter. Potencies of inconclusive entries are doubtful fits and often do not repeat.

The chains behind the UniProt entries cited, without tags or fusion partners.
UniProt O00167, whole entry, looked up: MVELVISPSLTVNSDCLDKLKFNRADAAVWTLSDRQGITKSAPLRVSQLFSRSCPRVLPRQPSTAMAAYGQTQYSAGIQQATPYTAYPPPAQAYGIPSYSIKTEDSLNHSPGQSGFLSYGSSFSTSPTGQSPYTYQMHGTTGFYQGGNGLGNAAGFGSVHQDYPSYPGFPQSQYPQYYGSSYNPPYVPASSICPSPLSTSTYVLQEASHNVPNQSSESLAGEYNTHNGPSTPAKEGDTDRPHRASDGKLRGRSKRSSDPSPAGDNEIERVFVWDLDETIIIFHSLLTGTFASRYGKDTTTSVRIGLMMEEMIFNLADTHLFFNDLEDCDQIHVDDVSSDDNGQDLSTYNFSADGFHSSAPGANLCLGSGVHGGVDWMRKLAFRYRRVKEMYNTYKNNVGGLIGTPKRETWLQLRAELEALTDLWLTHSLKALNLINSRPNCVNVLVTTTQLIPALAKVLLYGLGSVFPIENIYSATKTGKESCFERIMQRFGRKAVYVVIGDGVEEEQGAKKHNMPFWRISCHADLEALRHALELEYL

molecular target: Protein phosphatase EYA2 (Homo sapiens) (UniProt O00167); experiment: qHTS Assay for Inhibitors of the Phosphatase Activity of Eya2; settings: recombinant Eya2, OMFP fluorescence dephosphorylation (OMFP is methylfluorescein phosphate); activity, negative = inhibition: at 76.9 µM (top of the series) unless noted
Summary of the method: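 Eya2 (0.2 uM) preincubated 10 min at ambient with compound, then OMFP substrate added at 50 uM; 10 min reaction in 50 mM HEPES pH 7.5, 50 mM NaCl, 5 uM MgCl2, 0.05% BSA, 1 mM DTT. Fluorescence read at Ex 485/Em 525 nm.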
On the % scale 0 is the no-effect control and ±100 the full control effect; potency means the concentration at half of the fitted maximal effect.

For `Cc1c(OC(C)C(=O)N[C@H](C(=O)O)c2ccccc2)ccc2c3c(c(=O)oc12)CCCC3` (some centres not stated), which Potency is on record?
The Potency was inconclusive: 22.4 µM [inhibitor, single point].

How did the Potency turn out when `COc1ccc(C2C(C(N)=O)=C(C)Nc3nc(CCCO)nn32)cc1` (configuration not stated) was run?
The Potency was inconclusive: 178 µM [inhibitor, partial curve, poor fit].

Which Potency does the source give for `CC(=O)c1ccc(S(=O)(=O)N(CCCO)Cc2cc3cc4c(cc3[nH]c2=O)OCCO4)cc1` here?
Its Potency is inconclusive: 28.2 µM [inhibitor, single point].

Which “activity, negative = inhibition” value does the source give for `Clc1ccc(OCc2nc3ccccc3[nH]2)cc1` here?
The value was inactive: -4.54%.

With `Cc1csc(NC(=O)c2ccco2)n1` as the compound, how does the “activity, negative = inhibition” value read?
Its value is inactive: 12.6%.

`Cc1ccc(-c2nnc(CCC(=O)NCc3csc(C)n3)o2)s1` was tested. Which Potency did it give?
Its Potency is inconclusive: 50.1 µM [inhibitor, partial curve].

For `COCCNC(=O)C(=O)NCC1OCCN1S(=O)(=O)c1ccc2c(c1)OCCO2` (configuration not stated), which Potency is on record?
Its Potency is inconclusive: 22.4 µM [inhibitor, single point].

`COc1ccc(-c2csc(=NCCO)n2-c2ccccc2)cc1` was tested. Which Potency did it give?
The Potency was inconclusive: 100 µM [inhibitor, single point].

For `COc1ccc(CCNC(=O)C2CCN(C(=O)c3ccc(OC)c(OC)c3)CC2)cc1`, which Potency is on record?
Its Potency is inconclusive: 28.2 µM [inhibitor, single point].

`CN(C)S(=O)(=O)c1ccc(Cl)c(NC(=O)COC(=O)c2ccc3c(c2)NC(=O)CS3)c1` was tested. Which Potency did it give?
The Potency was inconclusive: 89.1 µM [inhibitor, single point].

How did the Potency turn out when `COc1ccc(N(CC(=O)N2CCC(Cc3ccccc3)CC2)S(C)(=O)=O)cc1` was run?
Its Potency is inconclusive: 89.1 µM [inhibitor, single point].

`O=C1CC(N2CCSCC2)C(=O)N1c1ccc(Br)cc1` (configuration not stated) was tested. Which Potency did it give?
Its Potency is inconclusive: 126 µM [inhibitor, partial curve, poor fit].

Which Potency does the source give for `C#CCOCCOCCOCCNc1nc(N2CCN(C(=O)CCCCCCCCCCNC(=O)[C@H](CCCN=C(N)N)n3cc(C[C@@H](C)CC)nn3)CC2)nc(N2CCN(C(=O)CCCCCCCCCCNC(=O)[C@@H]([C@H](C)CC)n3cc(CCCCCN)nn3)CC2)n1` here?
The Potency was inconclusive: 63.1 µM [inhibitor, partial curve].

With `Cc1cccc(Oc2nc(-c3ccncc3)nc3ccccc23)c1` as the compound, how does the Potency read?
Its Potency is inconclusive: 89.1 µM [inhibitor, single point].

For `O=C(Nc1ccccc1C(F)(F)F)c1ncn[nH]1`, which “activity, negative = inhibition” value is on record?
Its value is inactive: 1.71%.

With `CC(C)(C)c1cc(C(=O)NNC(=O)Nc2cccc(Cl)c2)n(Cc2ccccc2)n1` as the compound, how does the Potency read?
The Potency was inconclusive: 89.1 µM [inhibitor, partial curve, poor fit].

Which Potency does the source give for `CS(=O)(=O)Oc1ccc2c(c1)O/C(=C\c1cccnc1)C2=O` here?
Its Potency is inconclusive: 2240 µM [inhibitor, single point].

`O=C(NNC(=S)NC(=O)c1ccco1)c1ccc(F)cc1` was tested. Which “activity, negative = inhibition” value did it give?
The value was inactive: 5.49%.

How did the activity, negative = inhibition turn out when `O=C1/C(=C\c2ccc(O)cc2)SC(=S)N1Cc1ccccc1` was run?
Its activity, negative = inhibition is inconclusive: 84.6% [activator].

`O=C(COc1ccc2ccc(=O)oc2c1)Nc1nccs1` was tested. Which “activity, negative = inhibition” value did it give?
Its value is inactive: 5.77%.

For `O=C(NNC(=O)c1ccc(Br)s1)NC1CCCCC1`, which Potency is on record?
Its Potency is inconclusive: 20000 µM [inhibitor, partial curve].

`COc1cc(/C=N/NC(=O)C2COc3ccccc3O2)ccc1O` (configuration not stated) was tested. Which Potency did it give?
The Potency was inconclusive: 178 µM [inhibitor, partial curve, poor fit].

With `CCOC(=O)c1ccc(N/C=C/C(=O)c2ccco2)cc1` as the compound, how does the “activity, negative = inhibition” value read?
The value was inactive: -0.849%.

For `COC(=O)c1cc(C(=O)c2cc(Cl)ccc2O)coc1=N`, which “activity, negative = inhibition” value is on record?
The value was inactive: 6.74%.

For `CCOC1(c2ccccc2)CC1C(=O)N/N=C/c1cccc([N+](=O)[O-])c1` (configuration not stated), which Potency is on record?
The Potency was inconclusive: 126 µM [inhibitor, single point].

Which Potency does the source give for `CCN(C(=O)COC(=O)c1cc(OC)c(OC)cc1[N+](=O)[O-])C1CCS(=O)(=O)C1` (configuration not stated) here?
The Potency was inconclusive: 17.8 µM [inhibitor, partial curve, poor fit].

For `Cc1ccc(NC(=O)c2ccc(Cl)c(N3C(=O)C=CC3=O)c2)cc1`, which Potency is on record?
Its Potency is inconclusive: 28.2 µM [inhibitor, single point].

Which Potency does the source give for `Cc1ccc2[nH]c(=O)c3cc(C(=O)NC(C)C)sc3c2c1` here?
Its Potency is inconclusive: 15.8 µM [inhibitor, single point].

With `COc1ccc(N(C)C(=O)c2ccc3c(Cl)c4c(nc3c2)CCCC4)c(OC)c1` as the compound, how does the “activity, negative = inhibition” value read?
Its value is inactive: -4.39%.

`c1ccc2[nH]c3cc4ncnc4cc3nc2c1` was tested. Which “activity, negative = inhibition” value did it give?
The value was inactive: 22.4%.

For `O=C(CC1C(=O)NCCN1Cc1ccccc1)NC1CCCCCC1` (configuration not stated), which “activity, negative = inhibition” value is on record?
Its value is inactive: 0.312%.

Which “activity, negative = inhibition” value does the source give for `C=C(C)n1c(=O)n(Cc2ccccc2C)c2ccccc21` here?
The value was inactive: 0.483%.

For `O=C(Cn1nnc(-c2ccc(Cl)cc2)n1)NC1CCS(=O)(=O)C1` (configuration not stated), which “activity, negative = inhibition” value is on record?
Its value is inactive: 3.61%.

How did the Potency turn out when `CCC(C)(C)n1nnnc1C(c1ccc(O)c(OC)c1)N1CCc2ccccc2C1` (configuration not stated) was run?
The Potency was inconclusive: 31.6 µM [inhibitor, partial curve].

Which “activity, negative = inhibition” value does the source give for `S=c1[nH]nc(-c2ccccn2)n1/N=C/c1c(Cl)cccc1Cl` here?
Its value is inactive: -29.6%.

With `CC(C)(C)S(=O)(=O)/C(C#N)=N/Nc1ccc(C#N)cc1` as the compound, how does the Potency read?
The Potency was inconclusive: 126 µM [activator, partial curve, poor fit].

`CC(=O)Oc1ccc(/C=C(\NC(=O)c2ccco2)C(=O)NCc2ccccc2)cc1` was tested. Which Potency did it give?
The Potency was inconclusive: 25.1 µM [inhibitor, single point].

Which activity, negative = inhibition does the source give for `O=C(O)/C=C\c1ccccc1Oc1ccc(F)cc1` here?
Its activity, negative = inhibition is inconclusive: 33.9% [activator].

For `C[C@H]1CN([C@@H](C)CO)C(=O)c2cccc(NC(=O)C3CC3)c2O[C@H]1CN(C)C(=O)Nc1ccc2c(c1)OCO2`, which Potency is on record?
Its Potency is inconclusive: 70.8 µM [inhibitor, single point].

`COc1ccc(-c2cc(=O)c3ccccc3o2)cc1` was tested. Which “activity, negative = inhibition” value did it give?
Its value is inactive: -0.0374%.

How did the Potency turn out when `O=C(N/N=C/c1ccc(OC(F)F)cc1)C1=COCCO1` was run?
Its Potency is inconclusive: 20 µM [inhibitor, single point].

`Oc1[nH]c2ccccc2c1N=Nc1ncnc2c1oc1ccccc12` was tested. Which Potency did it give?
The Potency was inconclusive: 447 µM [inhibitor, partial curve, poor fit].

With `Cc1nc2ccccc2n(CC(=O)Nc2cc(Cl)cc(Cl)c2)c1=O` as the compound, how does the Potency read?
The Potency was inconclusive: 708 µM [inhibitor, single point].

With `COc1ccc(CC(=O)N2CCN(c3ccccc3)CC2)cc1OC` as the compound, how does the Potency read?
Its Potency is inconclusive: 89.1 µM [inhibitor, single point].

For `CC(C)c1ccc(N2C(=O)/C(=C/N(C)C)SC2=S)cc1`, which Potency is on record?
The Potency was inconclusive: 126 µM [activator, partial curve].

With `Cn1c2ccccc2c(=O)c2c(=O)n(-c3ccccc3)c(-c3ccc(C(C)(C)C)cc3)nc21` as the compound, how does the Potency read?
Its Potency is inconclusive: 22.4 µM [inhibitor, partial curve, poor fit].

`COc1ccc(Cn2c(SCC#N)nc3ccc(N4CCOCC4)cc3c2=O)cc1` was tested. Which “activity, negative = inhibition” value did it give?
The value was inactive: 1.44%.

Which Potency does the source give for `COc1ccccc1N1C(=O)C2C3C=CC(C3)C2C1=O` (configuration not stated) here?
The Potency was inconclusive: 20 µM [inhibitor, partial curve].

With `CCc1cc(C)cc(OCCNC(=O)c2ncn[nH]2)c1` as the compound, how does the “activity, negative = inhibition” value read?
Its value is inactive: 3.32%.

Which “activity, negative = inhibition” value does the source give for `CC(=O)c1ccc(OCc2cc(C(=O)N3CCC[C@H]3CO)no2)cc1` here?
The value was inactive: 4.42%.

With `Cc1ccc(-c2ocnc2C(=O)Nc2ccccc2NC(=O)c2ccccn2)cc1` as the compound, how does the Potency read?
Its Potency is inconclusive: 25.1 µM [inhibitor, single point].

How did the Potency turn out when `O=C(COC(=O)c1cn(-c2ccccc2)nc1-c1ccccc1)c1cccc([N+](=O)[O-])c1` was run?
The Potency was inconclusive: 25.1 µM [inhibitor, single point].

For `Cc1cc(C)c(S(=O)(=O)NC2CCN(Cc3ccccc3)CC2)c(C)c1`, which Potency is on record?
Its Potency is inconclusive: 100 µM [inhibitor, single point].

Which Potency does the source give for `CCC(CC)C(=O)c1c[nH]c(C(=O)NCc2cccnc2)c1` here?
Its Potency is inconclusive: 224 µM [inhibitor, partial curve].

For `Cc1cccc(-n2c(O)c(C=Nc3ccccc3-c3n[nH]c(=S)[nH]c3=O)c3ccccc3c2=O)n1`, which Potency is on record?
The Potency was inconclusive: 158 µM [inhibitor, partial curve, poor fit].

With `COc1cc(NC(=O)c2cc3c(CO)cnc(C)c3oc2=Nc2cccc(C(N)=O)c2)cc(OC)c1` as the compound, how does the Potency read?
The Potency was inconclusive: 22.4 µM [inhibitor, single point].

Which “activity, negative = inhibition” value does the source give for `O=C(Nc1ccccc1C(=O)O)c1ccc2ccccc2n1` here?
The value was inactive: -7.26%.

`COc1ccc(C(=O)N(CCc2ccccc2)Cc2ccccc2)c(OC)n1` was tested. Which Potency did it give?
Its Potency is inconclusive: 89.1 µM [inhibitor, single point].

How did the “activity, negative = inhibition” value turn out when `COc1ccc(NS(=O)(=O)c2cn(C)cn2)cc1Cl` was run?
Its value is inactive: 13.7%.

`COc1ccc(/C=C2\CN(Cc3ccccc3)C/C(=C\c3ccc(OC)c(O)c3)C2=O)cc1O` was tested. Which Potency did it give?
The Potency was inconclusive: 89.1 µM [inhibitor, single point].

With `O=S(=O)(O)c1cc(O)c2c(O)c(N=Nc3cc(Cl)ccc3O)c(S(=O)(=O)O)cc2c1` as the compound, how does the Potency read?
The Potency was inconclusive: 70.8 µM [inhibitor, single point].

For `CCNc1c(NC(=O)C2CCC(C)CC2)c(=O)oc2ccccc12` (configuration not stated), which Potency is on record?
Its Potency is inconclusive: 22400 µM [inhibitor, partial curve, poor fit].

How did the “activity, negative = inhibition” value turn out when `CCCCn1c(N)c(N(CC(C)C)C(=O)c2ccc(Cl)c(S(=O)(=O)N3CCCC3)c2)c(=O)[nH]c1=O` was run?
Its value is inactive: 18.3%.

With `CCOc1ccc(-c2c(C(=O)N/N=C(\C)c3ccccc3OC)nnn2-c2nonc2N)cc1` as the compound, how does the Potency read?
The Potency was inconclusive: 89100 µM [inhibitor, partial curve, poor fit].

With `Cc1ccccc1OCc1nc2ccccc2c(=O)n1/N=C/c1cccc([N+](=O)[O-])c1` as the compound, how does the “activity, negative = inhibition” value read?
Its value is inactive: 2.16%.

With `CC(=O)Nc1nc2ccccc2n1Cc1ccccc1Cl` as the compound, how does the Potency read?
Its Potency is inconclusive: 17.8 µM [inhibitor, single point].

How did the Potency turn out when `CS(=O)(=O)N1CCN(C(=O)COc2ccc3ccccc3c2)CC1` was run?
The Potency was inconclusive: 447 µM [inhibitor, single point].
